PubChem BioAssay AID1259405 – NCATS, 2018

- Test: 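Silenced genes that increase secreted GFP made by CHO cells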 (primary screen)
- Cells: Chinese hamster CHO-K1 ovary cells with stable secreted eGFP expression
- Reagent: single siRNA against mouse genes, 0.8 pmol siRNA per well (2 µl of 400 nM stock)
- Duration: 3 days
- Read-out: 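Per-well intracellular GFP measured by laser scanning cytometry, plus viability from ATP luminescence, each relative to plate median of non-targeting control wells, in %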
- Direction: GFP, % of control: higher = more GFP per well, higher productivity
- Rule for the call: 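a knock-down is called active if GFP reaches 120% or more of non-targeting control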
This is a random part of about 50,000 reagents tested. About 4,000 of all reagents (8%) count as active. 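Mouse siRNA library applied to hamster cells; one well for each siRNA.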 A number with no mark means an inactive call. The numbers tell different reagents against one gene apart. Not all columns of the deposit are shown.

GFP, % of control, by target and reagent
Arnt2 (aryl hydrocarbon receptor nuclear translocator 2): #1 33.9; #2 80.4
Rassf7: #1 193 (active); #2 50.7; #3 93
Atp6v1d (ATPase, H+ transporting, lysosomal V1 subunit D): #1 113; #2 74.8; #3 47.8
Slc23a3: #1 50.9; #2 43.1; #3 90.6
Tmem86a (transmembrane protein 86A): #1 87.7; #2 115; #3 86.9
Hspd1 (heat shock protein 1 (chaperonin)): #1 90.6; #2 90.5; #3 82.6
Col17a1 (collagen, type XVII, alpha 1): #1 109; #2 67.4
Gpr162 (G protein-coupled receptor 162): #1 55; #2 63.1; #3 61.7

Part of the list above, reformatted.
target	reagent	GFP, % of control
Rassf7	2	50.7
Rassf7	3	93
Atp6v1d (ATPase, H+ transporting, lysosomal V1 subunit D)	1	113
Atp6v1d (ATPase, H+ transporting, lysosomal V1 subunit D)	2	74.8
Atp6v1d (ATPase, H+ transporting, lysosomal V1 subunit D)	3	47.8
Slc23a3	1	50.9
Slc23a3	2	43.1
Slc23a3	3	90.6
Tmem86a (transmembrane protein 86A)	1	87.7

Next results follow.
GFP, % of control, by target and reagent
Ift43 (intraflagellar transport 43): #1 117; #2 102; #3 109
Rnf4 (ring finger protein 4): #1 91.1; #2 77.5; #3 80
Zp2 (zona pellucida glycoprotein 2): #1 75.6; #2 38.1; #3 66.4
Etv3 (ets variant 3): #1 43.3; #2 70.4; #3 101
Wnt2 (WNT family member 2): #1 79.5; #2 67.8; #3 69.6
Grep1 (glycine rich extracellular protein 1): #1 60; #2 62.7; #3 61.5
Itpka (inositol 1,4,5-trisphosphate 3-kinase A): #1 107
Grip1 (glutamate receptor interacting protein 1): #1 64.8; #2 124 (active); #3 55.5
Or2h2c (olfactory receptor family 2 subfamily H member 2C): #1 69.2; #2 72.9; #3 86.8
Dolk (dolichol kinase): #1 126 (active); #2 94.6; #3 101
Agbl5 (ATP/GTP binding protein-like 5): #1 66.9; #2 89.6; #3 54.5
Nes (nestin): #1 58.6; #2 61.7
Smap2 (small ArfGAP 2): #1 204 (active); #2 68.5; #3 57.4; #4 123 (active); #5 81.2; #6 93.3
